Hit rate of the full screen: of about 53,000 sequences, about 3,700 (7%) were called active.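 How the source made its calls: active means gene knockdowns whose robust z-score for IL-1 alpha signal is at least 2 or at most -2, so actives lie on both sides; inactive means the rest.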 This is one part of the list.

This experiment is described as follows: Components of the Cytosolic LPS Sensing Pathway: Gene Identification via Genome-wide siRNA Screen.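 Further: robust z of the log signal after scaling to non-targeting control siRNA wells of the plate.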 To be noted: RAW264.7 macrophages, IL-1a HTRF, actives lie on both sides, screened at 100 nM (by protocol), cells primed 5 h with Pam3CSK4 first. The method, boiled down:
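IL-1a HTRF of supernatants after 24 hour LipidA transfection of Pam3CSK4-primed (5 hours) RAW264.7 cells, 48h post-siRNA transfection (100 nM). Scores: percent of plate negative-control median, then log-based robust z-score.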
Background: In TR-FRET formats the signal depends on donor and acceptor labels being close together.
For GGAGUUUGAAAGUUCCUUCTT against Dap3, the z-score is inactive: 1.82.

As to CCCAAAGGUGAUGUUACCUTT against H2-M3, the z-score is inactive: -0.491.

In the case of GGUUCUGUAAAUUCAACUATT against Zfp593, the z-score is inactive: 0.706.

Regarding GGGCAUAGAUUAGUCUUUATT against Ing2, the z-score is inactive: 1.01.

GGACAAUACCUACCUCGCATT against Polr3d: the z-score was inactive: 0.971.

As for GGAAUGGAUACUUAUCUCUTT against Tef, the z-score is inactive: 1.17.

On to “GGAUUCCUACAGGUGUGAATT against 4930503E14Rik”, for which the z-score is inactive: 1.02.

Take CCCAGACAUUACAUGGCCUTT against Cldn6: the z-score is inactive: -0.935.

In the case of GCCUAAGGAUCCUGGGUUATT against Orai3, the z-score is inactive: 1.43.

CGAGCCUGACUUCAAUCCUTT against Clcf1: the z-score was inactive: -0.403.

Consider GCUCUCGACUCUUUACACUTT against Nfatc2ip, for which the z-score is inactive: 0.423.

Turning to GCAAUUAUAACUUAGAAGGTT against Eml3, the z-score is inactive: 0.149.

Consider GGUUGUCUCUUGAGAAUGATT against Cst10, for which the z-score was inactive: -0.345.

With GGAAUGGUAGCCACUGUUATT against Klrg1, the z-score was inactive: -0.339.

For the sequence GGCCUUGAUGCCAUUGUAATT against Rnf115, the z-score is inactive: -0.763.

On to CCUCGCUUAUGUCAAUAAUTT against Fabp12, for which the z-score is inactive: -1.16.

On to GGAAUACCAGGAAUACGAGTT against Sncb, for which the z-score was inactive: -0.517.

For the sequence “GCUGAAAAGCAGAAGCCACTT against 2610028H24Rik”, the z-score was inactive: -0.795.

As to GCAAGGCCUAAUGGUCAGATT against Cnga3, the z-score is inactive: -0.813.

As for GCAGCUUUAGGUCCAUUCGTT against Pkd2l2, the z-score is inactive: -0.696.

Turning to GGAGAAAUGGGUAAAAACUTT against Paral1, the z-score is inactive: 0.296.

Take CCAGUUUGAUGGUAGACAATT against Tifa: the z-score was inactive: -1.38.

On to GGAUCUGCUGAUGCUUCCATT against Cstf1, for which the z-score was inactive: -0.657.

With GCUAUGAGAUGUAUCCCGGTT against Pramel27, the z-score was inactive: -0.283.

Consider GGAAAAGGUUUCUUCUAAATT against Nlrp2, for which the z-score is inactive: 0.635.

Take GUAGCAGAGGCUUCACUAUTT against Ndufaf3: the z-score is inactive: -1.58.

For the sequence CGCAGCAGGAAUCAGGAAUTT against Tsr1, the z-score is inactive: 0.222.

GGUAGACUUCAUCCUAGGCTT against Olfr62: the z-score is inactive: 0.548.

In the case of GCUUGGAAGGGACUUCAAUTT against Trp73, the z-score is active: 2.97.

Values taken from PubChem BioAssay AID1508600 (Functional Genomics Laboratory (NCATS/FGL), 2020).
